Where a name gives a salt, the structure may show the parent alone. This is one part of the list. Part of the spread comes from offsets between plates or batches.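 The strain is a K-12 laboratory model grown without shaking in 96-well plates, and biofilm is the crystal violet stain retained on the wells, read as absorbance. Drugs were picked as candidate specific biofilm blockers when they cut staining strongly but slowed free-floating growth by less than 70%.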

The experiment deals with Escherichia coli W3110. Briefly: biofilm formation (crystal violet staining) relative to untreated control; higher = more biofilm. The conditions noted are these: 10 µM; 20-24 h; 30 °C; TB.
For `C[C@]12CCC(=O)C(O)=C1CC[C@@H]1[C@@H]2CC[C@]2(C)C(=O)CC[C@@H]12` [Formestane], the biofilm formation came to 44%.

In turn, `CNC(C)(C)Cc1ccccc1` [Mephentermine hemisulfate] gave a biofilm formation of 74%. The value for `CN1[C@@H]2CC[C@H]1C[C@@H](OC(=O)C(CO)c1ccccc1)C2` (some centres undefined) [Atropine sulfate monohydrate] was 90%. The same measure for `CC(C)C[C@H]1C(=O)N2CCC[C@H]2[C@]2(O)O[C@](NC(=O)[C@@H]3C=C4c5cccc6[nH]c(Br)c(c56)C[C@H]4N(C)C3)(C(C)C)C(=O)N12` [Bromocryptine mesylate]: 45%; for `CCNCC(O)c1cccc(O)c1` (centres undefined) [Etilefrine hydrochloride]: 67%. The same measure for `CC(C)(N)Cc1ccccc1` [Phentermine hydrochloride]: 87%; for `CN(C)C(=O)Oc1cccc([N+](C)(C)C)c1` [Neostigmine bromide]: 86%; for `CNC(=O)Oc1ccc2c(c1)[C@]1(C)CCN(C)[C@@H]1N2C` [Eserine hemisulfate salt]: 76%. Compound `COc1ccc(C(CN(C)C)C2(O)CCCCC2)cc1` (centres undefined) [Venlafaxine] came in with a biofilm formation of 67%. `C[C@]12CC[C@@H](O)C[C@H]1CC[C@@H]1[C@@H]2CC[C@]2(C)C(=O)CC[C@@H]12` [3-alpha-Hydroxy-5-beta-androstan-17-one] displayed a biofilm formation of 70%. For the compound `CN(C)C(=O)Oc1ccc[n+](C)c1` [Pyridostigmine iodide], the biofilm formation was 80%. As for `C#CCN(C)[C@H](C)Cc1ccccc1` [Selegiline hydrochloride], the biofilm formation was determined as 95%. Compound `O=c1[nH]c2ccccc2n1C1CCN(CCCC(c2ccc(F)cc2)c2ccc(F)cc2)CC1` [Pimozide] showed a biofilm formation of 55%. The value for `CC1OC(OC2/C=C/C=C/C=C/C=C/CC/C=C/C=C/[C@H](C)[C@@H](O)[C@@H](C)[C@H](C)OC(=O)CC(O)CC(O)CC(O)CCC(O)C(O)C[C@]3(O)CC(O)C(C(=O)O)C(C2)O3)C(O)C(N)C1O` (some centres undefined) [Nystatine] was 51%; that for `NCCCNCCSP(=O)(O)O` [Amifostine] was 69%. The value for `CCC(=O)O[C@H]1CC[C@H]2[C@@H]3CCC4=CC(=O)CC[C@]4(C)[C@H]3CC[C@]12C` [Testosterone propionate] was 82%; that for `COc1ccc(OC)c(C(O)C(C)N)c1` (centres undefined) [Methoxamine hydrochloride] was 55%; that for `C[C@@H]1CN([C@H]2CC[C@](C#N)(c3ccc(F)cc3)CC2)CC[C@]1(C(=O)O)c1ccccc1` [Levocabastine hydrochloride] was 107%. The same measure for `O=C(CCCN1CCC(n2c(=O)[nH]c3ccccc32)CC1)c1ccc(F)cc1` [Benperidol]: 87%.

The values above are taken from the supplement of paper PMC7580552.
